Results as given in patent US20130130315A1 (ADVANCECOR, published 2013).
Results are given in words; binding and its absence hold for the method and conditions named. Some binding calls cover weakened binding; strength is not graded here.

Amino acid sequences for entries named in this document (tags omitted). A change or cut given only in a name is not applied to a line headed by its entry. Residues count along the entry.
UniProt P02453: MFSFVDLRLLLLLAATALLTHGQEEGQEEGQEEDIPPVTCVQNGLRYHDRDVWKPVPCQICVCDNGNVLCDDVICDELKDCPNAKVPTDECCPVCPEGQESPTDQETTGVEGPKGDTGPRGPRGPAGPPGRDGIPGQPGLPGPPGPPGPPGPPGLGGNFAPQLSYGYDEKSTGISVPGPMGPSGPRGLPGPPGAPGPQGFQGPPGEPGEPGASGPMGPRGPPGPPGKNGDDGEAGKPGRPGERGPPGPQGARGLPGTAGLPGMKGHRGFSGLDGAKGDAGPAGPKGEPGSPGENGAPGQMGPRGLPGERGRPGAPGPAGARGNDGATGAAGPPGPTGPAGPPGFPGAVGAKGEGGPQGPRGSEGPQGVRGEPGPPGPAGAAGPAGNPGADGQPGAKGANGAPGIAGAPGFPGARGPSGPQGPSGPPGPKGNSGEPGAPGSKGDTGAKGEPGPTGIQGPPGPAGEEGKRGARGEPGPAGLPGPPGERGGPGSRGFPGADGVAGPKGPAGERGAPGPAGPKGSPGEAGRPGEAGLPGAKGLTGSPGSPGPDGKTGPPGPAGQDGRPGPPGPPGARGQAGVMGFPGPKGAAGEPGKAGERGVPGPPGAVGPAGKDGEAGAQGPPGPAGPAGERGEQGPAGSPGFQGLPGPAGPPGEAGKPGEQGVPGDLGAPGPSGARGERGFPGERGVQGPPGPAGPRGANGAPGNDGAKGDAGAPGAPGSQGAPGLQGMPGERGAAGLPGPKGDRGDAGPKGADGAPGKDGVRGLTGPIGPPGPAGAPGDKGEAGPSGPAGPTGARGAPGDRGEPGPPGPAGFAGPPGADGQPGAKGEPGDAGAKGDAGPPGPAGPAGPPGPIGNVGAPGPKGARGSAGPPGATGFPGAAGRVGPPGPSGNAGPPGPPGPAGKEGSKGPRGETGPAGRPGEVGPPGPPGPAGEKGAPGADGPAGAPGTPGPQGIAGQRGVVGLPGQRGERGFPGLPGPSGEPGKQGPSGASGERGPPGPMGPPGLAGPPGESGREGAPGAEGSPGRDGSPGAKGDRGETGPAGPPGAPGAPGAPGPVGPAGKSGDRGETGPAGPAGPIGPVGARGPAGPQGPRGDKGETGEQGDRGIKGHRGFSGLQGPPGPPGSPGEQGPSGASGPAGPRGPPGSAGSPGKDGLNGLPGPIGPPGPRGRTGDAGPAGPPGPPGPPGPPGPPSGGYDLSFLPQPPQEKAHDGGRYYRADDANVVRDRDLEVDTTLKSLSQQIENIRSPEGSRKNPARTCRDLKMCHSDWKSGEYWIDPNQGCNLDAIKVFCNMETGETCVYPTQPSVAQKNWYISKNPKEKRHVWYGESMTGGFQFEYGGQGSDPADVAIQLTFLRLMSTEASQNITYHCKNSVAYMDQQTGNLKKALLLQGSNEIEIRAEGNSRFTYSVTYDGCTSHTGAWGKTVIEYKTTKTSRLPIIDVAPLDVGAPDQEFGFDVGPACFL
UniProt Q9HCN6, residues 21-267: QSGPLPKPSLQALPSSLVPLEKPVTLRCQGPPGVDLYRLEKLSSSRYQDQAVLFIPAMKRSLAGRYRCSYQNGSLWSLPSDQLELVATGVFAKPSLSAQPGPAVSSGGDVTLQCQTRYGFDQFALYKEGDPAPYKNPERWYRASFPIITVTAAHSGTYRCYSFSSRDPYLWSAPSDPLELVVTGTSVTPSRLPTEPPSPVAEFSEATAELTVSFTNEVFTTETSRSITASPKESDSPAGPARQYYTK

Target: T1, bovine collagen I (bovine, UniProt P02453 162-1217; P02465 80-1117, limits assumed)
T1 construct: also called immobilized collagen I; soluble collagen I
Assay: ELISA on immobilized bovine collagen I
Description: Fc-protein was used as negative control.
An Immulon 2 HB 96-well plate (NUNC, Rochester, N.Y.) was coated with 0.1 ml 1 μg/ml bovine collagen I in 15 mM Na₂CO3, 35 mM NaHCO3, pH 9.6 o/n at 4° C. Wells were washed with PBS-T, blocked with 0.1 ml 1× RotiBlock (Roth, Karlsruhe, Germany) in PBS-T for one hour and washed again before addition of 0.1 ml of threefold dilutions of fusion protein. After one hour incubation at RT with shaking, wells were washed with PBS-T. Wells were incubated with 0.1 ml anti-human IgG-HRP (Dianova, Hamburg, Germany) 1:10000 in PBS-T for one hour at RT with shaking. The plate was washed with PBS-T and incubated with 0.1 ml 1-Step Ultra TMB-ELISA (PIERCE, Rockford, Ill.). After blue staining had developed sufficiently, reactions were stopped by addition of 0.1 ml 1 M H₂SO₄. Absorbance was measured at 450 nm and 595 nm as a reference wavelength using an infinite F200 plate reader (TECAN, Männedorf, Switzerland). EC₅₀ values were calculated with Sigma Plot 11 using Four Parameter Logistic.

GPVI-FcIgG1 (from UniProt Q9HCN6 21-267) (Fc fusion)
binding: binds
